Experimental data as given in patent US4604378A, “Basic V1 -vasopressin antagonists” (SmithKline Beckman Corporation, priority 1984, dated 1986).
Part of at least one peptide drawing is inferred or uncertain, most often the ends. Where a SMILES comes first, the peptide text is derived from it. Bridges are numbered along the chain shown (N, C = ends). [ ]: non-standard residue; d: D form. The star is where a group is joined. NH(CH2)4NH2 = NCCCCN*; Mpa = O=C(O)CCS

Protein sequences, listed by entry. Tags and fused reporters are not part of them.
UniProt Q00788, whole entry: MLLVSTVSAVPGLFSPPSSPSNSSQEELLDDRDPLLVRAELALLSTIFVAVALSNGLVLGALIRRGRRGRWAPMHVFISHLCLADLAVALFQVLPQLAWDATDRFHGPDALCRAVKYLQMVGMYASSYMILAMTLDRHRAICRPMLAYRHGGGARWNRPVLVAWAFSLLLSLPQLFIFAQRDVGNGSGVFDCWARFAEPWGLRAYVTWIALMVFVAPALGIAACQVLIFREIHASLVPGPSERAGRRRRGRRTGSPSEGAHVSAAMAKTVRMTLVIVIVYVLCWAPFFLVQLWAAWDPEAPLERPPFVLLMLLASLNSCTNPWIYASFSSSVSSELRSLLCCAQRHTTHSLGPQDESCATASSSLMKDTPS

Target: T1, V2 -vasopressin receptors (Rattus norvegicus, UniProt Q00788)
T1 construct: Hydropenic rat; from tissue; host or cells: whole animal (hydropenic rat)
Assay: Hydropenic rat protocol, V2 antagonism in vivo

SMILES	Rat V2 ED300
CCOc1ccc(C[C@H]2NC(=O)CCSSC[C@@H](C(=O)N3CCC[C@H]3C(=O)NCCCCN)NC(=O)[C@H](CC(N)=O)NC(=O)[C@H]([C@@H](C)O)NC(=O)[C@H]([C@@H](C)CC)NC2=O)cc1 [C] ([Mpa][dY](Et)ITNCP-{NH(CH2)4NH2}; disulfide 1-6)	> 591 µg/kg
CCOc1ccc(C[C@@H]2NC(=O)CCSSC[C@@H](C(=O)N[C@@H](CCCNC(=N)N)C(=O)NCC(N)=O)NC(=O)[C@H](CC(N)=O)NC(=O)[C@H]([C@@H](C)O)NC(=O)[C@H]([C@@H](C)CC)NC2=O)cc1 [D] ([Mpa]Y(Et)ITNCRG-NH2; disulfide 1-6)	> 5018 µg/kg
CCOc1ccc(C[C@@H]2NC(=O)CCSSC[C@@H](C(=O)N[C@@H](CCCNC(=N)N)C(N)=O)NC(=O)[C@H](CC(N)=O)NC(=O)[C@H]([C@@H](C)O)NC(=O)[C@H]([C@@H](C)CC)NC2=O)cc1 [E] ([Mpa]Y(Et)ITNCR-NH2; disulfide 1-6)	~ 2037 μg/kg
